Measured values as given in the supplement of paper PMC8728848.
This is one part of the list.

Key:
Experiment in all cases: glycan array binding signal (z-score within array); higher = stronger binding
Conditions in all cases: glycan notation: IUPAC condensed, linker removed
Gal3S(b1-4)Glc = molecular target: Gal3S(b1-4)Glc
Procedure, shortened: (§1)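 Columns mapping to the same glycan were averaged after glycan names were converted to IUPAC-condensed notation. The data come from 3228 arrays in the Consortium for Functional Glycomics database, limited to those with an available protein sequence. Binding is reported as a within-array Z-score averaged across arrays of one protein sequence and across linkers.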

Gal3S(b1-4)Glc6S = molecular target: Gal3S(b1-4)Glc6S
Procedure, shortened: as §1

Gal3S(b1-4)GlcNAc = molecular target: Gal3S(b1-4)GlcNAc
Procedure, shortened: as §1

[1] = molecular target: Gal3S(b1-4)[Fuc(a1-3)]Glc6S
Procedure, shortened: as §1

[2] = molecular target: Gal3S(b1-4)[Fuc(a1-3)]GlcNAc
Procedure, shortened: as §1

[3] = molecular target: Gal3S(b1-4)[Fuc(a1-3)]GlcNAc6S
Procedure, shortened: as §1

Gal3S4S(b1-4)GlcNAc = molecular target: Gal3S4S(b1-4)GlcNAc
Procedure, shortened: as §1

Gal3S6S(b1-4)GlcNAc = molecular target: Gal3S6S(b1-4)GlcNAc
Procedure, shortened: as §1

Gal3S6S(b1-4)GlcNAc6S = molecular target: Gal3S6S(b1-4)GlcNAc6S
Procedure, shortened: as §1

Gal4S(b1-4)GlcNAc = molecular target: Gal4S(b1-4)GlcNAc
Procedure, shortened: as §1

Gal4S6S(b1-4)GlcNAc = molecular target: Gal4S6S(b1-4)GlcNAc
Procedure, shortened: as §1

Gal6P(b1-4)GlcNAc = molecular target: Gal6P(b1-4)GlcNAc
Procedure, shortened: as §1

Gal6S(b1-3)GlcNAc = molecular target: Gal6S(b1-3)GlcNAc
Procedure, shortened: as §1

Gal6S(b1-3)GlcNAc6S = molecular target: Gal6S(b1-3)GlcNAc6S
Procedure, shortened: as §1

Gal6S(b1-4)Glc = molecular target: Gal6S(b1-4)Glc
Procedure, shortened: as §1

Gal6S(b1-4)Glc6S = molecular target: Gal6S(b1-4)Glc6S
Procedure, shortened: as §1

Gal6S(b1-4)GlcNAc = molecular target: Gal6S(b1-4)GlcNAc
Procedure, shortened: as §1

Gal6S(b1-4)GlcNAc6S = molecular target: Gal6S(b1-4)GlcNAc6S
Procedure, shortened: as §1

GalNAc(a1-3)Gal = molecular target: GalNAc(a1-3)Gal
Procedure, shortened: as §1

GalNAc(a1-3)GalNAc = molecular target: GalNAc(a1-3)GalNAc
Procedure, shortened: as §1

[4] = molecular target: GalNAc(a1-3)GalNAc(b1-3)Gal(a1-4)Gal(b1-4)Glc
Procedure, shortened: as §1

[5] = molecular target: GalNAc(a1-3)GalNAc(b1-3)Gal(a1-4)Gal(b1-4)GlcNAc
Procedure, shortened: as §1

GalNAc(b1-3)Gal = molecular target: GalNAc(b1-3)Gal
Procedure, shortened: as §1

[6] = molecular target: GalNAc(b1-3)Gal(a1-4)Gal(b1-4)GlcNAc
Procedure, shortened: as §1

[7] = molecular target: GalNAc(b1-3)Gal(a1-4)Gal(b1-4)GlcNAc(b1-3)Gal(b1-4)Glc
Procedure, shortened: as §1

[8] = molecular target: GalNAc(b1-3)Gal(a1-6)Gal(b1-4)Glc
Procedure, shortened: as §1

GalNAc(b1-3)GalNAc = molecular target: GalNAc(b1-3)GalNAc
Procedure, shortened: as §1

GalNAc(b1-3)GlcNAc = molecular target: GalNAc(b1-3)GlcNAc
Procedure, shortened: as §1

GalNAc(b1-4)Gal(b1-4)Glc = molecular target: GalNAc(b1-4)Gal(b1-4)Glc
Procedure, shortened: as §1

GalNAc(b1-4)GlcNAc = molecular target: GalNAc(b1-4)GlcNAc
Procedure, shortened: as §1

[9] = molecular target: GalNAc(b1-4)GlcNAc(b1-2)Man
Procedure, shortened: as §1

[10] = molecular target: GalNAc(b1-4)GlcNAc(b1-2)Man(a1-3)[GalNAc(b1-4)GlcNAc(b1-2)Man(a1-6)]Man(b1-4)GlcNAc(b1-4)GlcNAc
Procedure, shortened: as §1

[11] = molecular target: GalNAc(b1-4)GlcNAc(b1-3)GalNAc(b1-4)GlcNAc
Procedure, shortened: as §1

GalNAc(b1-4)GlcNAc6S = molecular target: GalNAc(b1-4)GlcNAc6S
Procedure, shortened: as §1

GalNAc(b1-6)GalNAc = molecular target: GalNAc(b1-6)GalNAc
Procedure, shortened: as §1

GalNAc3S(b1-4)GlcNAc = molecular target: GalNAc3S(b1-4)GlcNAc
Procedure, shortened: as §1

GalNAc3S(b1-4)GlcNAc3S = molecular target: GalNAc3S(b1-4)GlcNAc3S
Procedure, shortened: as §1

[12] = molecular target: GalNAc3S(b1-4)[Fuc(a1-3)]GlcNAc
Procedure, shortened: as §1

GalNAc4S6S(b1-4)GlcNAc = molecular target: GalNAc4S6S(b1-4)GlcNAc
Procedure, shortened: as §1

GalNAc6S(b1-4)GlcNAc = molecular target: GalNAc6S(b1-4)GlcNAc
Procedure, shortened: as §1

Glc(a1-4)Glc = molecular target: Glc(a1-4)Glc
Procedure, shortened: as §1

[13] = molecular target: Glc(a1-4)Glc(a1-4)Glc(a1-4)Glc
Procedure, shortened: as §1

Glc(a1-6)Glc(a1-6)Glc = molecular target: Glc(a1-6)Glc(a1-6)Glc
Procedure, shortened: as §1

[14] = molecular target: Glc(a1-6)Glc(a1-6)Glc(a1-6)Glc
Procedure, shortened: as §1

Glc(b1-4)Glc = molecular target: Glc(b1-4)Glc
Procedure, shortened: as §1

B1: GS13599A-bth-520-23-520 (Bacteroides thetaiotaomicron) (protein)
chain: SEDTMDRINKDHDHTTSVASRFILADVITSTAFSNASGDINTYASSYIEYEVGVDNQLYYAEVRENEPSSSSTFNNSWNGIYSSLKNARIIIDQCGEGGRDHGNDVTRGMAEVMAAYNCALIADFFGDAPCSQAALVDEKGSPVYMTPKMDTQQEIYTQIISYLDDAIANLQKEDLADVTEQDFLYAGDADKWLKFAYGLKARYTMRLINRSSNKSADYEKVLDYVSKSFTSADDQAAFDIYDSNNINPFYGFYNSRAGFGASTSLGTKLLAYNDPRANRAFFTPIVDKKRSQVAANDPSLVPAPNGSPDQSTSKYGISAFVYAKTAPTLLMSYHELMFLKAEALCRLNRDAEDALKEAVVAGLLNAENSISIAIKELGSGLNTNSSEVITETSAGKYFDDVVKAKYAANPLQETMIQKYLAMWGASGEATETYNDFRRMKGLNENFITLTNPNNSSKFPLRYPYGNSDTAANPEVKAAYGNGDYVYSEPVWWAGGSR
glycan array binding signal (z-score) (Gal3S(b1-4)Glc): 3.17
glycan array binding signal (z-score) (Gal3S(b1-4)Glc6S): -0.259
glycan array binding signal (z-score) (Gal3S(b1-4)GlcNAc): -0.657
glycan array binding signal (z-score) [1]: 0.291
glycan array binding signal (z-score) [2]: 1.1
glycan array binding signal (z-score) [3]: 0.538
glycan array binding signal (z-score) (Gal3S4S(b1-4)GlcNAc): 0.609
glycan array binding signal (z-score) (Gal3S6S(b1-4)GlcNAc): -0.466
glycan array binding signal (z-score) (Gal3S6S(b1-4)GlcNAc6S): 0.601
glycan array binding signal (z-score) (Gal4S(b1-4)GlcNAc): -0.548
glycan array binding signal (z-score) (Gal4S6S(b1-4)GlcNAc): -0.678
glycan array binding signal (z-score) (Gal6P(b1-4)GlcNAc): 0.146
glycan array binding signal (z-score) (Gal6S(b1-3)GlcNAc): -0.698
glycan array binding signal (z-score) (Gal6S(b1-3)GlcNAc6S): -0.094
glycan array binding signal (z-score) (Gal6S(b1-4)Glc): -0.303
glycan array binding signal (z-score) (Gal6S(b1-4)Glc6S): 0.258
glycan array binding signal (z-score) (Gal6S(b1-4)GlcNAc): -0.54
glycan array binding signal (z-score) (Gal6S(b1-4)GlcNAc6S): 0.445
glycan array binding signal (z-score) (GalNAc(a1-3)Gal): -0.129
glycan array binding signal (z-score) (GalNAc(a1-3)GalNAc): -0.636
glycan array binding signal (z-score) [4]: -1.22
glycan array binding signal (z-score) [5]: 0.714
glycan array binding signal (z-score) (GalNAc(b1-3)Gal): 0.44
glycan array binding signal (z-score) [6]: -1.25
glycan array binding signal (z-score) [7]: -0.224
glycan array binding signal (z-score) [8]: -1.35
glycan array binding signal (z-score) (GalNAc(b1-3)GalNAc): -1.13
glycan array binding signal (z-score) (GalNAc(b1-3)GlcNAc): -0.074
glycan array binding signal (z-score) (GalNAc(b1-4)Gal(b1-4)Glc): 1.02
glycan array binding signal (z-score) (GalNAc(b1-4)GlcNAc): 1.11
glycan array binding signal (z-score) [9]: 2.03
glycan array binding signal (z-score) [10]: -1.1
glycan array binding signal (z-score) [11]: -0.499
glycan array binding signal (z-score) (GalNAc(b1-4)GlcNAc6S): -0.23
glycan array binding signal (z-score) (GalNAc(b1-6)GalNAc): -0.769
glycan array binding signal (z-score) (GalNAc3S(b1-4)GlcNAc): 0.897
glycan array binding signal (z-score) (GalNAc3S(b1-4)GlcNAc3S): 1.12
glycan array binding signal (z-score) [12]: 2.41
glycan array binding signal (z-score) (GalNAc4S6S(b1-4)GlcNAc): -1.28
glycan array binding signal (z-score) (GalNAc6S(b1-4)GlcNAc): 1.23
glycan array binding signal (z-score) (Glc(a1-4)Glc): -0.751
glycan array binding signal (z-score) [13]: -0.024
glycan array binding signal (z-score) (Glc(a1-6)Glc(a1-6)Glc): 0.175
glycan array binding signal (z-score) [14]: -0.044
glycan array binding signal (z-score) (Glc(b1-4)Glc): 0.031
